Source: the supplement of paper PMC11624193, “Coupling cellular drug-target engagement to downstream pharmacology with CeTEAM” (Nature Communications, 2024)
Structures can show the parent of a compound that is named as a salt. Shown are results outside the selection of hits, which stands elsewhere.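 How the source made its calls: active = log2 fold change beyond 2 SD from the library mean after excluding viability outliers; inactive = within 2 SD.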

Molecular target: PARP1 L713F-nLuc biosensor (HCT116) (UniProt P09874)
Assay: PARP1 L713F-nLuc/akaLuc ratio relative to DMSO control (biosensor stabilization) (fold change); higher = more PARP1 biosensor stabilization (target engagement / stabilizer), active = hit call of the paper
Details: stock concentration (mM; final µM = stock mM x 1): 10; 24 h

Compound | PARP1 L713F-nLuc/akaLuc ratio
C[C@@H]1C[C@H](N)C[C@H](c2ccncc2NC(=O)c2ccc(F)c(-c3c(F)cccc3F)n2)C1 [PIM-447 (dihydrochloride)] | inactive: 1.48
Cc1ccc(C(=O)NCCCCCC(=O)Nc2ccccc2N)cc1 | inactive: 0.928
